The numbers were not newly measured in US20250066504A1, “USE OF OREGOVOMAB AND PARP INHIBITORS FOR TREATMENT OF OVARIAN CANCER” (CANARIABIO INC., priority 2022, published 2025), which cites them from elsewhere.

Where two headings read alike, the source gives them in different places.

For series [1] the following is noted: after 6 weeks.
For series [2] the following is noted: human, in vivo.

Take Oregovomab: in series [1] (alternate delayed schedule of chemoimmunotherapy), the “patients with early humoral response” value is on record as 35%. In series [1] (preferred (simultaneous) schedule of chemo-immunotherapy, 2 mg per infusion), the “patients with early humoral response” value is given as 75%. In addition, in series [2], the “antibody response to the oregovomab variable domain portion” value is “induced” and the “patients who generated an antibody response to the immunoglobulin constant region” value is “More than 90%”.
